Primary screen of a compound library

Each number is a percent effect as filed. The controls that fix the scale are not given in the record; negative values are as filed. The compounds are a random part of those screened. A dash means the value is not listed here; it may have been measured.

Mtb growth Cornell: 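Whole-cell assay for inhibitors of Mycobacterium tuberculosis growth, labelled Cornell in the record; the read-out is not stated. The concentration is filed as 10 mM, unlikely as a test dose, so the dose is not known. Higher means stronger inhibition (inferred from two other growth screens of the library). About 53,000 compounds were tested under these conditions; 1.7% (about 900) showed 50% or more at least once.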
Mtb heat-shock: 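Assay on Mycobacterium tuberculosis, filed only as a heat shock assay from Cornell; the read-out is not stated. The concentration is filed as 10 mM, unlikely as a test dose, so the dose is not known. Higher reads as stronger inhibition (inferred: compounds with an IC50 in retests scored well above the rest). About 69,000 compounds were tested under these conditions; 1.4% (about 930) showed 50% or more at least once.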

| SMILES | Mtb growth Cornell | Mtb heat-shock |
|---|---|---|
| `CC(=O)Nc1cccc(C(=O)N2CCc3c(nc(N(C)C)[nH]c3=O)C2)c1` | -4.058% | -22.72% |
| `CC(C)c1cc(N2CCC(N(C)C)C2)n2nccc2n1` (stereo not shown) | - | 16.31% |
| `COc1ccc2c(c1)CC(C1CCOCC1)N(C(=O)c1ccn(C)n1)C2` (stereo not shown) | -16.74% | -15.98% |
| `NC(=O)c1cccc(C2CCN(c3ncccn3)CC2)n1` | 17.37% | 25.35% |
| `COc1ccc2c(c1)CC(C(=O)N(C)CCCc1cnn(C)c1)CO2` (stereo not shown) | - | 40.48% |
| `Cc1nn(C)cc1-c1ccnc(N(C)Cc2cnn(C)c2)n1` | 13.81% | 7.008% |
| `O=S(=O)(c1cccnc1)N1CCN(CC(O)c2cccs2)CC1` (stereo not shown) | 21.03% | -14.96% |
| `Cn1cc(CN2CCCC23CCN(C(=O)c2ccncc2)CC3)cn1.O=C(O)C(F)(F)F` | -20.92% | -22.55% |
| `Cc1cc(C)n(C2CCN(S(C)(=O)=O)CC2)n1` | -25.2% | -5.904% |
| `CCn1cc(CN2CCCN(C(=O)CCc3nccs3)CC2)cn1` | -38.92% | -0.9898% |
| `CCn1cc(CN2CCC(CNC(C)=O)CC2)cc1C#N` | -17.17% | -0.9069% |
| `O=C(O)C(c1ccc2[nH]ccc2c1)N1CCN(c2cnccn2)CC1` (stereo not shown) | - | -8.945% |
| `CNS(=O)(=O)c1cccc(C(C)NCc2ccc(F)c(F)c2)c1` (stereo not shown) | 6.12% | -8.942% |
| `CC1=C[C@@H](CN2CCCC2)[C@H](C(C)C)C[C@H]1Cc1nnc(C)o1` | 7.147% | 7.036% |
| `CCc1nc(C2CCCN2C(=O)c2cnns2)no1` (stereo not shown) | - | 16.72% |
| `Cn1cc(C(=O)N2CCCC(c3cnccn3)C2)cn1` (stereo not shown) | -5.978% | 2.065% |
| `Cc1ccc(CN2CCCC(c3nnc(CN4CCCC4)n3C)C2)s1` (stereo not shown) | -20.83% | 3.186% |
| `CC1=Nc2c(c(=O)[nH]n2C2CCCC2)C(c2ccc(O)cc2)S1` (stereo not shown) | 20.45% | 22.09% |
| `CCn1ncc2c1CN(C(=O)c1ccc3c(c1)OCO3)CC2COC` (stereo not shown) | 10.67% | 9.835% |
| `Cc1nc(CSCCC(=O)NCc2ccc(N(C)C)cc2)cs1` | -1.216% | -15.63% |
| `Cc1ccc2c(c1)C1(CCN(S(C)(=O)=O)CC1)CN2C(=O)N(C)C` | 15.52% | 8.199% |
| `Cn1ccc2cc(C(=O)Nc3nc[nH]n3)ccc21` | -1.956% | 1.675% |
| `O=C1c2cccnc2OC(CN2CCOCC2)CN1CC1CC1` (stereo not shown) | 2.218% | -8.271% |
| `C[C@@H]1CN(Cc2cc3ccccc3n2C)CC[C@@]1(O)C1CC1` | 13.55% | -6.676% |
| `[H][C@@]12CNC[C@]1([H])N(C(=O)C1CCCCC1)CCO2` | -28.81% | -26.21% |
| `O=C(NC1CCS(=O)(=O)C1)c1ccccc1SCc1cscn1` (stereo not shown) | - | -5.139% |
| `CCc1nnc(Nc2cccc(C3CCN(C(C)=O)CC3)n2)s1` | -16.66% | -9.371% |
| `COc1cccc2c1OCC(C(=O)NCc1ncc3c(n1)CCC3)C2` (stereo not shown) | -12.39% | -10.24% |
| `CCC(CO)N(Cc1ccccn1)C(=O)c1ccc(CSC)o1` (stereo not shown) | -9.981% | -3.268% |
| `CC(=O)c1cnc(NCCN2CCCC2)nc1C` | 5.737% | 6.074% |
| `Cc1cnc(CN2CCOC(CNc3cccnn3)C2)cn1` (stereo not shown) | -27.82% | -0.6174% |
| `CC(=O)c1c(F)cccc1NC1CCN(C(=O)CC(C)C)CC1` | 15.89% | 8.639% |
| `CCOC(=O)c1nc(CC(=O)Nc2ccc3cc[nH]c3c2)no1` | -2.679% | 15.22% |
| `N#CCCN1CCN(S(=O)(=O)c2ccc(Cl)s2)CC1` | -32.49% | -34.93% |
| `Cc1nc(N2CCOCC2)nc2c1CCN(C(=O)N1CCCC1)CC2` | 20.52% | -12.07% |
| `CN(Cc1ccsc1)C(=O)c1ccc(F)c(NS(C)(=O)=O)c1` | 15.5% | 20.75% |
| `CN(Cc1ccncc1)C(=O)Nc1cnn(CC2CCCO2)c1` (stereo not shown) | - | -1.249% |
| `COc1ccc(C)cc1CN(C)CC(N)=O` | 0.203% | 4.071% |
| `COC(=O)C1CCCN1C(=O)c1ccc(Cl)cc1F` (stereo not shown) | - | -9.102% |
| `O=C(O)C(F)(F)F.[H][C@]12CCN(C(=O)c3cc[nH]n3)CC[C@@]1([H])S(=O)(=O)N(Cc1ccncc1)C2` | 8.999% | -24.26% |
| `COCc1nc(C(=O)NS(=O)(=O)c2ccc(C)c(C)c2)cs1` | - | -1.932% |
| `Cn1cnnc1SCc1cc2c(cc1Br)OCO2` | 8.42% | 3.908% |
| `O=S(=O)(C1CC1)N1CCOC2(CCCN(c3ccccc3)C2)C1` (stereo not shown) | -9.993% | -18.54% |
| `CC(C)(C)c1n[nH]c(C2CN(C(=O)CCc3ccco3)CCO2)n1` (stereo not shown) | - | 29.28% |
| `CNc1cc(N2CCCC2CNCc2cccc(C(N)=O)c2)ncn1` (stereo not shown) | -5.95% | -6.111% |
| `CCOC(C)c1nccn1Cc1c(C)noc1C` (stereo not shown) | 7.361% | 6.501% |
| `CCCC(NC(=O)c1cc(C)ccc1C)c1nnn[nH]1` (stereo not shown) | -2.356% | -18.19% |
| `CC1CN(Cc2nnsc2Cl)CCN1c1nccs1` (stereo not shown) | 44.37% | -7.348% |
| `CCN(C)S(=O)(=O)NC(C)c1cnc(N(C)C2CCCCC2)nc1C` (stereo not shown) | 12.44% | -6.078% |
| `CCCn1[nH]cc/c1=N\C(=O)CN1CCn2c(nnc2C2CC2)C1` | - | 8.958% |
| `Cc1nc(CN(C)C2CCN(CC3CCCC3)C2)no1` (stereo not shown) | 19.41% | -2.843% |
| `CN1CCN(Cc2noc(CC3CCc4ccccc43)n2)CC1` (stereo not shown) | -2.258% | -1.969% |
| `CSc1nc(N)c2c(n1)N=C1COC(O)=C1C2c1cccc(Cl)c1` (stereo not shown) | -9.655% | 2.564% |
| `Cc1cccc2nc(CN3CCCC(C)C3)cc(=O)n12` (stereo not shown) | 8.854% | -1.578% |
| `O=C(NC1CCCC1)c1cc2c(s1)CCN2C(=O)c1ccccc1` | 40.97% | 11.24% |
| `COc1cccc2c1OCC(C(=O)NCCCn1nc(C)c(Cl)c1C)C2` (stereo not shown) | 18.9% | -11.66% |
| `CC(C)CCNC(=O)C1CCCN1C(=O)Nc1cccc(F)c1` (stereo not shown) | -4.541% | 1.578% |
| `Cc1cc(C)n(-c2cncc(NCCC(=O)NC(C)C)n2)n1` | 21.43% | -1.343% |
| `c1cc(-c2nccn2CCc2nc3c(s2)CCC3)ccn1` | -4.065% | -22.62% |
| `Cc1nc(C)c(S(=O)(=O)NC(=O)c2sccc2C)s1` | -4.536% | 6.956% |
| `[H][C@@]12COC[C@H](c3nc(C)no3)[C@]1([H])CN(C(=O)Cc1ccsc1)C2` | 13.91% | 10.04% |
| `CCS(=O)(=O)N1CCc2ccc(NC(=O)NC3CCCCC3)cc21` | 23.61% | 17.2% |
| `Cc1nccc(NCc2cncc3c2CCN(CC2CC2)C3)n1.Cl.Cl` | -6.647% | 21.55% |
| `CC(C)NC(=O)[C@@H]1C[C@@H](N)CN1C(=O)c1cc2c([nH]c1=O)CCCC2` | 5.624% | -0.9508% |
| `CN(C)C(CNS(=O)(=O)c1ccc(F)cc1F)c1cccn1C` (stereo not shown) | -3.154% | 6.225% |
| `O=C(O)C(F)(F)F.[H][C@@]12CCN(Cc3ccsc3)C[C@@]1([H])[C@H](C(=O)NC1CC1)CCO2` | 7.341% | -0.7242% |
| `CCCc1cc(NC2CCc3nc(CC)nn3C2)n2ncnc2n1` (stereo not shown) | 3.535% | -13.06% |
| `NC(=O)CN(C(=O)Cc1ccc(C(F)(F)F)cc1)C1CCCC1` | 3.989% | -14.16% |
| `[H][C@@]12CS(=O)(=O)C[C@]1([H])N(C(=O)c1ccc3c(c1)CCCN3)CCN2CC` | -5.048% | 7.597% |

Once more, the final 6:

* CC(C)NC(=O)[C@@H]1C[C@@H](N)CN1C(=O)c1cc2c([nH]c1=O)CCCC2 : Mtb growth Cornell: 5.624%; Mtb heat-shock: -0.9508%
* CN(C)C(CNS(=O)(=O)c1ccc(F)cc1F)c1cccn1C (stereo not shown) : Mtb growth Cornell: -3.154%; Mtb heat-shock: 6.225%
* O=C(O)C(F)(F)F.[H][C@@]12CCN(Cc3ccsc3)C[C@@]1([H])[C@H](C(=O)NC1CC1)CCO2 : Mtb growth Cornell: 7.341%; Mtb heat-shock: -0.7242%
* CCCc1cc(NC2CCc3nc(CC)nn3C2)n2ncnc2n1 (stereo not shown) : Mtb growth Cornell: 3.535%; Mtb heat-shock: -13.06%
* NC(=O)CN(C(=O)Cc1ccc(C(F)(F)F)cc1)C1CCCC1 : Mtb growth Cornell: 3.989%; Mtb heat-shock: -14.16%
* [H][C@@]12CS(=O)(=O)C[C@]1([H])N(C(=O)c1ccc3c(c1)CCCN3)CCN2CC : Mtb growth Cornell: -5.048%; Mtb heat-shock: 7.597%

Source: ChEMBL document CHEMBL3988442, “University of Dundee, Small-Polar-MMV Screening Library” (2021).